Experimental data taken from publication doi:10.64898/2025.12.02.691793.

Sequences of proteins named here, by UniProt entry; tags and fusion partners are left off. A change or cut given only in a name is not applied to a line headed by its entry.
UniProt Q9UPN9: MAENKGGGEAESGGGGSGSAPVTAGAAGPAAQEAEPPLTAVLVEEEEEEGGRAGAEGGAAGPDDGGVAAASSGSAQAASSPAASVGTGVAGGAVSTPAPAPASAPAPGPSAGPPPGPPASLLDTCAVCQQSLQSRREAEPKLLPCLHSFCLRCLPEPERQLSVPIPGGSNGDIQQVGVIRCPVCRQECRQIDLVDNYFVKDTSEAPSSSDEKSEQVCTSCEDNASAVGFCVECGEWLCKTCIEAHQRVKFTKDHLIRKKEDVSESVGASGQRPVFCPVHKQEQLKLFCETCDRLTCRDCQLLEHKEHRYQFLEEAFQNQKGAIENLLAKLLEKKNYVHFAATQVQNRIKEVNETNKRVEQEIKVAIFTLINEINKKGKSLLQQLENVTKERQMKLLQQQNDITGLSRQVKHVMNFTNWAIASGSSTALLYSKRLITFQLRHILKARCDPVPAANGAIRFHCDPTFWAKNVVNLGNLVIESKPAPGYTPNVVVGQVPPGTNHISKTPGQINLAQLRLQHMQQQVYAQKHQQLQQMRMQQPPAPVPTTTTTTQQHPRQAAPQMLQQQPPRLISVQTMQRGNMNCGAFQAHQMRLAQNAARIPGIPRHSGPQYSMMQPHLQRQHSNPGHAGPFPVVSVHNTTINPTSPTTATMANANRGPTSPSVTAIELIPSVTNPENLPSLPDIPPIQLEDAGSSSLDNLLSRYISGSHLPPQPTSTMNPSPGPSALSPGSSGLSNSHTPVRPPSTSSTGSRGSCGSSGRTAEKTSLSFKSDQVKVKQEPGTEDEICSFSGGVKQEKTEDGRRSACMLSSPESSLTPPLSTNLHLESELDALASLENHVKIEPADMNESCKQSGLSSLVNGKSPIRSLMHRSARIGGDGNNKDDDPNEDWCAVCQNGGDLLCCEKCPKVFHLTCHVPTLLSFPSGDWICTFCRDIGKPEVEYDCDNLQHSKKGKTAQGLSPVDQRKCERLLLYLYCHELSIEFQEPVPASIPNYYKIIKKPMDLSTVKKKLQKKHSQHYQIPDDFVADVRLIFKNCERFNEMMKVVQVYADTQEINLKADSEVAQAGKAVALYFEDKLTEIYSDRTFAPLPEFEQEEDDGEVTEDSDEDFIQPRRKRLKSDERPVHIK
UniProt P0C0S5: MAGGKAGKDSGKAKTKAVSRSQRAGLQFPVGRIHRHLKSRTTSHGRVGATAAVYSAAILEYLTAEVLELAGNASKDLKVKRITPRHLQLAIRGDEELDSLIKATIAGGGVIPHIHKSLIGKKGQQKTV
UniProt Q9Y4A5: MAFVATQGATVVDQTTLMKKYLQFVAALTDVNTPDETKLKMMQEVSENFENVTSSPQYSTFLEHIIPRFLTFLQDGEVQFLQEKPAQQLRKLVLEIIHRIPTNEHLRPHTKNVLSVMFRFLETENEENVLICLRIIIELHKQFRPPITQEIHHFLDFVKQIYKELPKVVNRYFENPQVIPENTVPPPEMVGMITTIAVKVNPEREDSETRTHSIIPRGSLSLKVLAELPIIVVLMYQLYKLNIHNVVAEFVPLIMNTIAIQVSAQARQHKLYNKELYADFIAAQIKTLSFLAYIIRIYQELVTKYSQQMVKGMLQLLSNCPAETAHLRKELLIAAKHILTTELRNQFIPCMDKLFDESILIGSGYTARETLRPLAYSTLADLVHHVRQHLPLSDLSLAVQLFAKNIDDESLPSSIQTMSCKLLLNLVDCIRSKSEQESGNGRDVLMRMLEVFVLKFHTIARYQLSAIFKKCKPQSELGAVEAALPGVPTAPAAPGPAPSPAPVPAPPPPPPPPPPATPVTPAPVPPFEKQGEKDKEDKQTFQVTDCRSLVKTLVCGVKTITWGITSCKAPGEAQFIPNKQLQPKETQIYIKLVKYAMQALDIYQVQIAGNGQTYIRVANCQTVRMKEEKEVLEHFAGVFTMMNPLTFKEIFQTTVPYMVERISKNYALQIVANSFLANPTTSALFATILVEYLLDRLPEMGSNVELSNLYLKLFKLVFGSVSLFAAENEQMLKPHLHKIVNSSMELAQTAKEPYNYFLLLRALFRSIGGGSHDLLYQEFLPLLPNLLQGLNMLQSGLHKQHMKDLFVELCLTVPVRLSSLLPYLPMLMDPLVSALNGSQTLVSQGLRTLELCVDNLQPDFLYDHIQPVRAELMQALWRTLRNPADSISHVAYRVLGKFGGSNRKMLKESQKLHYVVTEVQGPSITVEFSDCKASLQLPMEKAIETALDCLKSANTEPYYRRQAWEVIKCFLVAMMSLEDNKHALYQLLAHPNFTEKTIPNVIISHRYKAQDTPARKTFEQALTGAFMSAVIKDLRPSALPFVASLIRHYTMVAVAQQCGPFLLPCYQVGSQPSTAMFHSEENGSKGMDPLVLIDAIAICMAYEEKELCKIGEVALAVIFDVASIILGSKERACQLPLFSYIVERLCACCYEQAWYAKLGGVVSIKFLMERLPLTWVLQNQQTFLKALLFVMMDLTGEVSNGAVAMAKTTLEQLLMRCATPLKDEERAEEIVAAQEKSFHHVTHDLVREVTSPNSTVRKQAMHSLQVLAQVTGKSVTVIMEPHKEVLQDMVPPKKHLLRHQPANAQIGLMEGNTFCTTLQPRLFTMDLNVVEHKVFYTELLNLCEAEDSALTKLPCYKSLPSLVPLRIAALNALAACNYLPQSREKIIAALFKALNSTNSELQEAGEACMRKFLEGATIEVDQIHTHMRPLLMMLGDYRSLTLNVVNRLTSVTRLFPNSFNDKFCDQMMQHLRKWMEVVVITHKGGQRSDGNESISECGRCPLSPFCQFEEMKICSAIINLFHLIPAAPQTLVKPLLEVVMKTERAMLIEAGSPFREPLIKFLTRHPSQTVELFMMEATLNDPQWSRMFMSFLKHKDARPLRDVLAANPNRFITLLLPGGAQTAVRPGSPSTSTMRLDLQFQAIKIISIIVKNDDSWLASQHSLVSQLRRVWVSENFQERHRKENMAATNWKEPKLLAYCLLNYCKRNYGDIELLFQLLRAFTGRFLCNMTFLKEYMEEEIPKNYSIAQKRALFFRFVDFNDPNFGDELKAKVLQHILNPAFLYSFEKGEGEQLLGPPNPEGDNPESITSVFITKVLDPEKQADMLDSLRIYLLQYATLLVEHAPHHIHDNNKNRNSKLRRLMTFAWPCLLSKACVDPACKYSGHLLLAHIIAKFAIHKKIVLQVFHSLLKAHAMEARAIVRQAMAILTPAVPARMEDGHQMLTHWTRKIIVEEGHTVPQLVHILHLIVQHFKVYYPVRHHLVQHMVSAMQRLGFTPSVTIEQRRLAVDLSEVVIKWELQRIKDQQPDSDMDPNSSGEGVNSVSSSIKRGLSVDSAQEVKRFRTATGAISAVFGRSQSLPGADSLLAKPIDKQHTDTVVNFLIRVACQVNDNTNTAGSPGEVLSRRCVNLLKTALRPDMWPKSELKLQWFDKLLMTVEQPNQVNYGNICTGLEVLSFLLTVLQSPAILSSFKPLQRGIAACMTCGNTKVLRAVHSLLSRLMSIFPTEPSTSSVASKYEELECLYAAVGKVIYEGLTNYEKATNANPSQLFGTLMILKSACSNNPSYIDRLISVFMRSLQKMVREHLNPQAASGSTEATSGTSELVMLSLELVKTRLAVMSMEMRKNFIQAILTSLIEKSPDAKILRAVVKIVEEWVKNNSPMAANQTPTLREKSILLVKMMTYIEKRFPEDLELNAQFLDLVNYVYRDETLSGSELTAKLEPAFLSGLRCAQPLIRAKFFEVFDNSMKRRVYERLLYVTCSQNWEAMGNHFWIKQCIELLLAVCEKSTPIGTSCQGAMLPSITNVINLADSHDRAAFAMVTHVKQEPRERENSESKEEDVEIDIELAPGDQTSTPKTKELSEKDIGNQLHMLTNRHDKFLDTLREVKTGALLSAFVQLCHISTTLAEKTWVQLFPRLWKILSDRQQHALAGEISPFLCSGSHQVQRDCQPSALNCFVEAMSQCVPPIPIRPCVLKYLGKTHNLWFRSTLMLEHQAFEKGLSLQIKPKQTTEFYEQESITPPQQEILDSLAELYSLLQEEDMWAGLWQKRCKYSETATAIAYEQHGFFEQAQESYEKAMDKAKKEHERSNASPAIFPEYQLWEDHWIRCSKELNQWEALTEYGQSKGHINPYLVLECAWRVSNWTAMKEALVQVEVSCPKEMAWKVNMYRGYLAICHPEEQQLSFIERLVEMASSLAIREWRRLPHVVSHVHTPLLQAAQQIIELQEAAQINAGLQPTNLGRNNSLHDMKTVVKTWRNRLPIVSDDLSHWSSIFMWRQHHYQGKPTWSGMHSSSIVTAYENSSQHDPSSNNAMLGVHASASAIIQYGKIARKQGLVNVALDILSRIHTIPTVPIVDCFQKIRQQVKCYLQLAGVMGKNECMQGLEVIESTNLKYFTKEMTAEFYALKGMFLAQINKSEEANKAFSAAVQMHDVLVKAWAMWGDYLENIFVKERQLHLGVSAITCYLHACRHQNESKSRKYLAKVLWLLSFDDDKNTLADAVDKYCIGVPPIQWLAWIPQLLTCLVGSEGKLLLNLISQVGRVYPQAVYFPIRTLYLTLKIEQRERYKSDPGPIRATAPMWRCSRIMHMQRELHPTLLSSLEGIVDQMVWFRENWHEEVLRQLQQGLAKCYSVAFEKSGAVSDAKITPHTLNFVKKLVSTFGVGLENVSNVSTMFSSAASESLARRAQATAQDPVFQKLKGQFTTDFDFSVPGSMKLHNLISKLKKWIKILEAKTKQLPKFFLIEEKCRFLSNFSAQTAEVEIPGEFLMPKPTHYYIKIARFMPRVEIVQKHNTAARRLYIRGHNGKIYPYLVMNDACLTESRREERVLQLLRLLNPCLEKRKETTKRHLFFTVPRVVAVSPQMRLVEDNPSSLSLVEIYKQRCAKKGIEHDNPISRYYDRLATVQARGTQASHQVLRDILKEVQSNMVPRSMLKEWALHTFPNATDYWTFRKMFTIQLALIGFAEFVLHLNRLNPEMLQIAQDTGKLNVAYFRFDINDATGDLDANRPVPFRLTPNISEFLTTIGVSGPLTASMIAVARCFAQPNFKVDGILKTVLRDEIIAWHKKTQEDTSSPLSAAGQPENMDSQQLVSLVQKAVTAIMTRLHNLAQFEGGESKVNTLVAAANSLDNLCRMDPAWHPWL

Molecular target: Transcriptional Intermediary Factor 1γ (TIF1γ) (human (endogenous in HSC-3 and HSC-4)) (UniProt Q9UPN9)
Assay: affinity purification with mass spectrometry

Substance	binding
H2A.Z (from UniProt P0C0S5 1-128)	binds
TRRAP (from UniProt Q9Y4A5 1-3859)	binds

Results are given in words; binding and its absence hold for the method and conditions named. In cells and extracts the contact can be indirect. These calls come from enrichment with a bait or labelling near it, and not all partners need be listed.
